Measured values as given in paper PMC4729438.
Like-named read-outs stand apart in the source and are kept apart here. No constants are given. Whether binding was seen depends on the method and setting. Binding seen in cells or lysates may run through a third protein. These calls come from enrichment with a bait or labelling near it, and not all partners need be listed. For some of these results: No binding means not detected with the bait. Each block holds one molecule with its values, some of them ahead of it.

Amino acid sequences for entries named in this document (tags omitted). A change or cut given only in a name is not applied to a line headed by its entry. Chains listed by the source or under a name are the forms on record and can include a tag or linker. Residues count along the entry.
UniProt Q07021, residues 74-282: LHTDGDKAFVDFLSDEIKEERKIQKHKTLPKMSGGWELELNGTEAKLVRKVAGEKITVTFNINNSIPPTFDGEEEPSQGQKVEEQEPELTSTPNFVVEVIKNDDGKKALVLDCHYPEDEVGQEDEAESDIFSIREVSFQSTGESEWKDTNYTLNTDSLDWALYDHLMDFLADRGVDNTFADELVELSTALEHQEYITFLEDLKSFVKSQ
UniProt P35637: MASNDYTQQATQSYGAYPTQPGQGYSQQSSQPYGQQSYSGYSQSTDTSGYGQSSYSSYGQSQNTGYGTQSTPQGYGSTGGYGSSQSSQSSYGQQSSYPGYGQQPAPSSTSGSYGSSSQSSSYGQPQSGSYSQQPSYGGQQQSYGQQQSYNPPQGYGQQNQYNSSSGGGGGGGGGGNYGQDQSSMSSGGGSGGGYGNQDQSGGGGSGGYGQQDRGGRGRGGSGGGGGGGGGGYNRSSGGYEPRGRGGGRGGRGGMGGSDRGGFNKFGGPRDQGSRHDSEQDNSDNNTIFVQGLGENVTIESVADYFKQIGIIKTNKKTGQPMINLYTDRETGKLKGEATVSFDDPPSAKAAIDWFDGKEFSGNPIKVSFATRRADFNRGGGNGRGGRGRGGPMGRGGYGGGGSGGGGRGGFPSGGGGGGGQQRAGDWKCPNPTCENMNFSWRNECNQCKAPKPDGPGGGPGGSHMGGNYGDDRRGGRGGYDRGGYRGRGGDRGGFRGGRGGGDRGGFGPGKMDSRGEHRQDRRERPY
UniProt Q12905: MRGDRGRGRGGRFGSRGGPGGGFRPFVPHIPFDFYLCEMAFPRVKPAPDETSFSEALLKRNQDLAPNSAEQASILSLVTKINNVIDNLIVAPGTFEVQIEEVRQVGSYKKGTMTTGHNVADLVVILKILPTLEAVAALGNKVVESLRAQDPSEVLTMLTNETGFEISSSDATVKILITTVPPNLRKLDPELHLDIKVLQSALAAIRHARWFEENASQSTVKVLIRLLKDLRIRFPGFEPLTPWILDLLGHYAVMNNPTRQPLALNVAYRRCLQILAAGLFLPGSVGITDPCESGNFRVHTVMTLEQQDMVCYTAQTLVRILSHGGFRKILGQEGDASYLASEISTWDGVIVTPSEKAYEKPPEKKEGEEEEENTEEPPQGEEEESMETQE
Lamin C, endogenous (P02545-2, form named): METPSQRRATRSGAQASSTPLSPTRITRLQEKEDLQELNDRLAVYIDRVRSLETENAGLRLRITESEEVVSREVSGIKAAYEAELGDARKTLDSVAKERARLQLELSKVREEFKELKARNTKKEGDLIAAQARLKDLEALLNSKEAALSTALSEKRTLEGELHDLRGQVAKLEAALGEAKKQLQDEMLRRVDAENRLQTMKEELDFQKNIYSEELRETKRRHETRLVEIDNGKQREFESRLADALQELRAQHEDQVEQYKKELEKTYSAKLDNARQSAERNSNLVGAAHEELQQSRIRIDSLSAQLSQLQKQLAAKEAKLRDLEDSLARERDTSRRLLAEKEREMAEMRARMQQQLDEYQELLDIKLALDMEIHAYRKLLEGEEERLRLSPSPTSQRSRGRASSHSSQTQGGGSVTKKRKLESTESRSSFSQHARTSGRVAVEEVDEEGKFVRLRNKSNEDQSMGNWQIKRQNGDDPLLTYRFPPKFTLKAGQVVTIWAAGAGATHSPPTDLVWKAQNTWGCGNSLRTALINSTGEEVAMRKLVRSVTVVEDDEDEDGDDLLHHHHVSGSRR
UniProt P35579: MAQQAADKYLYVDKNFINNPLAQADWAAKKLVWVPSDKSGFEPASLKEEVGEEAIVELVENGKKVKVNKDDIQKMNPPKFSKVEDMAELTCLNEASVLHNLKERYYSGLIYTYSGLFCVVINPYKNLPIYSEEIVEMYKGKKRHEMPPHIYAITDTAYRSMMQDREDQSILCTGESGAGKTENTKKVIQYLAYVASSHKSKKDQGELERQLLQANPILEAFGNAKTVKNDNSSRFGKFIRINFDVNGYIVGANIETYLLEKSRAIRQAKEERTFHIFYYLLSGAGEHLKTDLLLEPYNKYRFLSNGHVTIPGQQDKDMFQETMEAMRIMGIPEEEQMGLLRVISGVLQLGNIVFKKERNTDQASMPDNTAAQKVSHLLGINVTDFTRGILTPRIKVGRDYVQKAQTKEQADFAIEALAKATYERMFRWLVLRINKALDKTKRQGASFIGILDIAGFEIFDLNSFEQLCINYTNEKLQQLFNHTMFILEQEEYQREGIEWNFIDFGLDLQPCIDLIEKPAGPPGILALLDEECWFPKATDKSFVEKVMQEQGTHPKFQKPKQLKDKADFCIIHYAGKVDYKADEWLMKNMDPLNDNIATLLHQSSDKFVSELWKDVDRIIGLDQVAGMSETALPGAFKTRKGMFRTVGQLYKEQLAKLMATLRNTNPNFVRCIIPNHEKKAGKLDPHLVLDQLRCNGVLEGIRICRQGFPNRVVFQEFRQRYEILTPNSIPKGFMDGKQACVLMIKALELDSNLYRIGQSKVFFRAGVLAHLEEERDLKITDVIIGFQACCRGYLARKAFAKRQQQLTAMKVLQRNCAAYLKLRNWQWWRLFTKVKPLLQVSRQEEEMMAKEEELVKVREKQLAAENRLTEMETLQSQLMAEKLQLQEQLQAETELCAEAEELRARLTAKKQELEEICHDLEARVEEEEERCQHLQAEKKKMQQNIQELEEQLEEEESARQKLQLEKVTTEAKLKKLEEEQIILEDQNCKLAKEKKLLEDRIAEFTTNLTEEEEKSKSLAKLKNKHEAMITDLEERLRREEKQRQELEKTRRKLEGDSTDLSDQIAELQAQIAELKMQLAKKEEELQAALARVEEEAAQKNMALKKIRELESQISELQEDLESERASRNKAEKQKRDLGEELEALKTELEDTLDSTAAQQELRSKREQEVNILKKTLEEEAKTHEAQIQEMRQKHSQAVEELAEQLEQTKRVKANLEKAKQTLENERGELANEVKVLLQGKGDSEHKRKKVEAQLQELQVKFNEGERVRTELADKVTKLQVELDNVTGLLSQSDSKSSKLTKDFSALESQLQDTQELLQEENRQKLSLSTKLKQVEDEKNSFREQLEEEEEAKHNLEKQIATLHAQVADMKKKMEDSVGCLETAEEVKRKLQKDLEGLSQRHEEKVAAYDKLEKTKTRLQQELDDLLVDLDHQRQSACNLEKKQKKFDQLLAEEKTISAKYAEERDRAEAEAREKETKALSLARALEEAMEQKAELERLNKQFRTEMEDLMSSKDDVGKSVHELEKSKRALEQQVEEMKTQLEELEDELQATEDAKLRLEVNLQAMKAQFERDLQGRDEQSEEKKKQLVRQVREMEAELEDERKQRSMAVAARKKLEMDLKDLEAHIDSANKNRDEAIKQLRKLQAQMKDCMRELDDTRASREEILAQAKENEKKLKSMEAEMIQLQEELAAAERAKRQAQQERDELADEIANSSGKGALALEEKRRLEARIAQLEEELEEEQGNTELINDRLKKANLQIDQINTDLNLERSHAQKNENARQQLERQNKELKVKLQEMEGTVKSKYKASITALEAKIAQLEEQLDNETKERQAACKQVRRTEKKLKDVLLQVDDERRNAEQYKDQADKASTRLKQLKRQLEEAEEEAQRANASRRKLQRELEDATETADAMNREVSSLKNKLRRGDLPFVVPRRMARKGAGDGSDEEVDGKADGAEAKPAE
UniProt P55060: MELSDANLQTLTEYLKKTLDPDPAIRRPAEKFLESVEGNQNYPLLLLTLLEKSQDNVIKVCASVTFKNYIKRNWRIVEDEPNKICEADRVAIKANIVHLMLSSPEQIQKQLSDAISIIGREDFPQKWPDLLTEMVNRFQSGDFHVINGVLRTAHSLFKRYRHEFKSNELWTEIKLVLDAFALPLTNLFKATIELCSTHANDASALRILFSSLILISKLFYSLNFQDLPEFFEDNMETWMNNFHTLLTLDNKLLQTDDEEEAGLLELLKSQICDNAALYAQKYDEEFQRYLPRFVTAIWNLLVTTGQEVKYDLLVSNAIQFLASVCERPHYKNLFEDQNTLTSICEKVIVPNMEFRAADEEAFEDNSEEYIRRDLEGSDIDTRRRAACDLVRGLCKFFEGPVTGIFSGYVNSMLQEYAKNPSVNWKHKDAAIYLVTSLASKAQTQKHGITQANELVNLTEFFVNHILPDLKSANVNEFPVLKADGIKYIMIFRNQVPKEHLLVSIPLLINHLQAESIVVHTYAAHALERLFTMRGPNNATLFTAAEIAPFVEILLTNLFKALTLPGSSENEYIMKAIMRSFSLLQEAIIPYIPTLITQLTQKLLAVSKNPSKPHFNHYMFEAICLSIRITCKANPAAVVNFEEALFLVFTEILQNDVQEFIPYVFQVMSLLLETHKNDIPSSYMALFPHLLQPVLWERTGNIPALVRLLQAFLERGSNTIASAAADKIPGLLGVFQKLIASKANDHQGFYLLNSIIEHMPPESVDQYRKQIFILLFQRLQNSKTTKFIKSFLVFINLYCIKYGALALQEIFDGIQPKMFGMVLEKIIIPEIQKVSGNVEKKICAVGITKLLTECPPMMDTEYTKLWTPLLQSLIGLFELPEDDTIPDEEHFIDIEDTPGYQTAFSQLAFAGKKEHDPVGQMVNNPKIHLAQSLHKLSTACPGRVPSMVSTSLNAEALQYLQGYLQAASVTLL

Key:
HaloTag-DUX4 (human) [1] = target: HaloTag-DUX4 (human) (UniProt Q9UBX2); assay: affinity purification with mass spectrometry; HaloTag fusions expressed in human muscle cells (TE671 in S1 Fig); extract bound to HaloLink resin 96 h at 4 °C in 50 mM HEPES pH 7.5, 150 mM NaCl, 0.5 mM EDTA, 0.005% Igepal; release by TEV; LC-MS/MS; proteins found with HaloTag-eGFP removed; at least 2 peptides
HaloTag-DUX4c (human) = HaloTag-DUX4c (human) (UniProt Q6RFH8); assay: as above
HaloTag-DUX4term (human) = HaloTag-DUX4term (human) (UniProt Q9UBX2); assay: as above
[2] = target: Glutathione-S-transferase (GST)-tagged DUX4 (pGEX-6p-1) (human) (UniProt Q9UBX2); assay: affinity purification with mass spectrometry; purified GST-DUX4 and Glutathione Sepharose 4B with 500 μg DNase-treated lysate of HEK293 cells or human myoblasts overnight at 4 °C in 150 mM NaCl, 5 mM MgCl2, 1 mM DTT, 25 mM Hepes pH 7.5; tandem MS of whole lanes; partners of GST omitted; at least 2 peptides; only the target purified
[3] = target: DUX4 (bait of a co-purification or pull-down with mass spectrometry; HaloTag-DUX4 or GST-DUX4, not told which) (human) (UniProt Q9UBX2); assay: affinity purification with mass spectrometry; putative partners named in the text without the method; they are in none of the two-hybrid tables, so HaloTag co-purification or GST-DUX4 pull-down (lists in S3 and S4 Tables)
[4] = target: DUX4 (bait of a co-purification or pull-down with mass spectrometry; HaloTag-DUX4 or GST-DUX4, not told which) (human) (UniProt Q9UBX2); assay: as above; remark: listed apart in the source
HaloTag-DUX4 (human) [5] = target: HaloTag-DUX4 (human) (UniProt Q9UBX2); assay: affinity purification with mass spectrometry; HaloTag fusions expressed in human muscle cells (TE671 in S1 Fig); extract bound to HaloLink resin 96 h at 4 °C in 50 mM HEPES pH 7.5, 150 mM NaCl, 0.5 mM EDTA, 0.005% Igepal; release by TEV; LC-MS/MS; proteins found with HaloTag-eGFP removed; at least 2 peptides; remark: listed apart in the source

- binding (HaloTag-DUX4 (human) [1]): binds
- binding (HaloTag-DUX4c (human)): binds
- binding (HaloTag-DUX4term (human)): no binding
- binding [2]: binds
Molecule: C1QBP, endogenous in human cells (from UniProt Q07021 74-282)

- binding (HaloTag-DUX4 (human) [1]): binds
- binding (HaloTag-DUX4c (human)): binds
Molecule: FUS, endogenous in human muscle cells (from UniProt P35637 1-526)

- binding [3]: binds
Molecule: ILF2, endogenous (from UniProt Q12905 1-390)

- binding [3]: binds
Molecule: Lamin C, endogenous (from UniProt P02545-2 1-572)

- binding (HaloTag-DUX4 (human) [1]): binds
Molecule: MYH9 (MYH II-A), endogenous (from UniProt P35579 1-1960)

- binding (HaloTag-DUX4 (human) [1]): binds
Molecule: MYH10/NMMH II-B, endogenous (from UniProt P35580 1-1976)

- binding (HaloTag-DUX4 (human) [1]): binds
Molecule: desmin, endogenous in human muscle cells (from UniProt P17661 1-470)

- binding [3]: binds
Molecule: exportin 2, endogenous (from UniProt P55060 1-971)

- binding [4]: binds
B1: SRSF3/SRp20, endogenous (protein, UniProt P84103 1-164)
chain: MHRDSCPLDCKVYVGNLGNNGNKTELERAFGYYGPLRSVWVARNPPGFAFVEFEDPRDAADAVRELDGRTLCGCRVRVELSNGEKRSRNRGPPPSWGRRPRDDYRRRSPPPRRRSPRRRSFSRSRSRSLSRDRRRERSLSRERNHKPSRSFSRSRSRSRSNERK

- binding [4]: binds
B2: ILF3, endogenous (protein, UniProt Q12906 1-894)
chain: MRPMRIFVNDDRHVMAKHSSVYPTQEELEAVQNMVSHTERALKAVSDWIDEQEKGSSEQAESDNMDVPPEDDSKEGAGEQKTEHMTRTLRGVMRVGLVAKGLLLKGDLDLELVLLCKEKPTTALLDKVADNLAIQLAAVTEDKYEILQSVDDAAIVIKNTKEPPLSLTIHLTSPVVREEMEKVLAGETLSVNDPPDVLDRQKCLAALASLRHAKWFQARANGLKSCVIVIRVLRDLCTRVPTWGPLRGWPLELLCEKSIGTANRPMGAGEALRRVLECLASGIVMPDGSGIYDPCEKEATDAIGHLDRQQREDITQSAQHALRLAAFGQLHKVLGMDPLPSKMPKKPKNENPVDYTVQIPPSTTYAITPMKRPMEEDGEEKSPSKKKKKIQKKEEKAEPPQAMNALMRLNQLKPGLQYKLVSQTGPVHAPIFTMSVEVDGNSFEASGPSKKTAKLHVAVKVLQDMGLPTGAEGRDSSKGEDSAEETEAKPAVVAPAPVVEAVSTPSAAFPSDATAEQGPILTKHGKNPVMELNEKRRGLKYELISETGGSHDKRFVMEVEVDGQKFQGAGSNKKVAKAYAALAALEKLFPDTPLALDANKKKRAPVPVRGGPKFAAKPHNPGFGMGGPMHNEVPPPPNLRGRGRGGSIRGRGRGRGFGGANHGGYMNAGAGYGSYGYGGNSATAGYSQFYSNGGHSGNASGGGGGGGGGSSGYGSYYQGDNYNSPVPPKHAGKKQPHGGQQKPSYGSGYQSHQGQQQSYNQSPYSNYGPPQGKQKGYNHGQGSYSYSNSYNSPGGGGGSDYNYESKFNYSGSGGRSGGNSYGSGGASYNPGSHGGYGGGSGGGSSYQGKQGGYSQSNYNSPGSGQNYSGPPSSYQSSQGGYGRNADHSMNYQYR

- binding (HaloTag-DUX4 (human) [5]): binds
B3: NONO, endogenous (protein, UniProt Q15233 1-471)
chain: MQSNKTFNLEKQNHTPRKHHQHHHQQQHHQQQQQQPPPPPIPANGQQASSQNEGLTIDLKNFRKPGEKTFTQRSRLFVGNLPPDITEEEMRKLFEKYGKAGEVFIHKDKGFGFIRLETRTLAEIAKVELDNMPLRGKQLRVRFACHSASLTVRNLPQYVSNELLEEAFSVFGQVERAVVIVDDRGRPSGKGIVEFSGKPAARKALDRCSEGSFLLTTFPRPVTVEPMDQLDDEEGLPEKLVIKNQQFHKEREQPPRFAQPGSFEYEYAMRWKALIEMEKQQQDQVDRNIKEAREKLEMEMEAARHEHQVMLMRQDLMRRQEELRRMEELHNQEVQKRKQLELRQEEERRRREEEMRRQQEEMMRRQQEGFKGTFPDAREQEIRMGQMAMGGAMGINNRGAMPPAPVPAGTPAPPGPATMMPDGTLGLTPPTTERFGQAATMEGIGAIGGTPPAFNRAAPGAEFAPNKRRRY

- binding [4]: binds
B4: SRSF5/SRp40, endogenous (protein, UniProt Q13243 1-272)
chain: MSGCRVFIGRLNPAAREKDVERFFKGYGRIRDIDLKRGFGFVEFEDPRDADDAVYELDGKELCSERVTIEHARARSRGGRGRGRYSDRFSSRRPRNDRRNAPPVRTENRLIVENLSSRVSWQDLKDFMRQAGEVTFADAHRPKLNEGVVEFASYGDLKNAIEKLSGKEINGRKIKLIEGSKRHSRSRSRSRSRTRSSSRSRSRSRSRSRKSYSRSRSRSRSRSRSKSRSVSRSPVPEKSQKRGSSSRSKSPASVDRQRSRSRSRSRSVDSGN
